# Assay results taken from PubChem BioAssay AID2099 (Broad Institute, 2009).
# Amino acid sequences for entries named in this document (tags omitted). Residues count along the entry.
# UniProt Q9H3R0, 1-420 limits assumed: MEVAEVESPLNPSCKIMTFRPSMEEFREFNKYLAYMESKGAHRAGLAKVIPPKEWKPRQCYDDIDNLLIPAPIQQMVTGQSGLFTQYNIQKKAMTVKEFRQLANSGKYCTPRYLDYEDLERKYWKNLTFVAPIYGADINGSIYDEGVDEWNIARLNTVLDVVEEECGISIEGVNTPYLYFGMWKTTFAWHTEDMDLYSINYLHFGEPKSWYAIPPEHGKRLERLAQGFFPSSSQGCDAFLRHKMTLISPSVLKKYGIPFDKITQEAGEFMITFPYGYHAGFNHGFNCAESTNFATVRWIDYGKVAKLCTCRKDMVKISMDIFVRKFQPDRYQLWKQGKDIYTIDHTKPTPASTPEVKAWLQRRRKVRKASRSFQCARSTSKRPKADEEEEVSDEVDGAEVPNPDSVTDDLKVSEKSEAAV
# About 230 (0.07%) of roughly 330,000 compounds were called active. Inconclusive means that the source gave no clear call. Such entries were picked first, then a sample of the others.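 Rule for the calls: active = more than half of a compound's replicate wells show inhibition beyond 50%, single wells judged on their own value; inconclusive = some, but no more than half, of replicates pass 50% inhibition; inactive = no replicate passes 50% inhibition.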
# Target: Lysine-specific demethylase 4C (Homo sapiens) (UniProt Q9H3R0)
# Test: inhibitors of GASC-1 histone demethylase, primary screen, biochemical, fluorescence, DELFIA europium (AID 2099);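 note: signal counts dimethyl H3K9 product captured on neutravidin plate; 0% = median of DMSO wells and 100% = 0.3 times that DMSO median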
# Details: GST-JMJD2C(1-420) H3K9me3 demethylation, at 2.35 µM, active compounds read high
row,SMILES,inhibition
1,CC(C)CN(C(=O)COC(=O)C1=COCCO1)c1c(N)n(Cc2ccccc2)c(=O)[nH]c1=O,inconclusive: -41.6%
2,CCn1c2ccccc2c2cc(N=C3SC(CC(=O)Nc4ccccc4OC)C(=O)N3CCOC)ccc21 (stereo not given),inconclusive: -51.4%
3,COc1ccc(Cc2nnc(SCC(=O)Nc3c(C)cccc3C)[nH]c2=O)cc1,inconclusive: -88.8%
4,O=C(COc1ccc(Cl)cc1)NNC(=O)c1cccnc1,inconclusive: -57.2%
5,CCOC(=O)c1c(C)[nH]c(=S)c(C#N)c1-c1ccc(OC)cc1,inconclusive: -73.6%
6,CCS(=O)(=O)c1ccc2c(c1)N(S(C)(=O)=O)CC(C(=O)NC1CC1)O2 (stereo not given),inactive: -14.9%
7,CCN(CC)CCNC(=O)c1cc2c(=O)n(C)c3ccccc3c2n1C,inactive: -1.27%
8,COc1ccc2cc(C(=O)N3CCN(Cc4ccc5c(c4)OCO5)CC3)[nH]c2c1,inconclusive: -95.2%
9,S=C(NCC1CCCO1)c1ccc(Br)cc1 (stereo not given),inconclusive: -101%
10,O=C(c1cnc(N2CCN(c3ncccn3)CC2)c2ccccc12)N1CCN(c2ncccn2)CC1,inconclusive: -56.5%
11,CCCN1C(=O)c2ccc(C(=O)Nc3cc(C)ccc3O)cc2C1=O,active: 57.2%
12,CCOc1ccc(-c2nnc(-c3cccs3)o2)cc1,inconclusive: -111%
13,CCOc1ccc2nc(NC(=O)C(NS(=O)(=O)c3cccs3)C(C)C)sc2c1 (stereo not given),inconclusive: -38%
14,O=S(=O)(NC1CCCCC1)c1ccc(S(=O)(=O)N2CCN3CCCC3C2)cc1 (stereo not given),inconclusive: -74.6%
15,COC(=O)c1ccc(CSC(=N)N)o1,inactive: 14.3%
16,O=C(NC1=NCCS1)C1CC2CCC1C2 (stereo not given),inconclusive: -81.6%
17,COC(=O)C1=C(O)/C(=C\c2ccc(OCC(=O)Nc3ccc(OC)cc3)cc2)N=C1C,inconclusive: -157%
18,Nc1nc(CN2CCN(c3ccccc3F)CC2)nc(Nc2ccccc2)n1,inactive: 3.75%
19,Cc1ccc2c(c1)oc(=O)n2CC(=O)c1ccccc1,inactive: -2.36%
20,O=C(NC1CCCc2ccccc21)c1ccc(Br)cc1 (stereo not given),active: 57.7%
21,CC(C)(c1ccccc1)c1ccc(OCC(O)CNC2CCN(Cc3ccccc3)CC2)cc1 (stereo not given),inactive: 4.66%
22,COc1ccc(/C=N/n2c(=O)[nH]c3c([nH]c4ccc(C)cc43)c2=O)cc1CN1CCOCC1,inconclusive: -153%
23,CCc1cc(=O)oc2c(C)c(OCC(=O)N3CCC(C(=O)O)CC3)ccc12,inconclusive: -364%
24,COc1ccc(-n2nc3c(N4CCC(C(=O)NCc5ccccc5C)CC4)nnc(C)c3c2C)cc1,inactive: 21.3%
25,CCOC(=O)c1cnn(-c2ccc(C(F)(F)F)cn2)c1N,inconclusive: -151%
26,CC(C)(C)NNC(=S)Nc1cccc(C(F)(F)F)c1,active: 54.2%
27,O/N=C1\CCC\C1=C/c1ccco1,inconclusive: -83.7%
28,CCOc1ccc2nc(NC(=O)COc3ccc(N(C)S(=O)(=O)c4ccc(C)cc4)cc3)sc2c1,inconclusive: -64.2%

# Single values from the results shown:
# In inhibition, COC(=O)C1=C(O)/C(=C\c2ccc(OCC(=O)Nc3ccc(OC)cc3)cc2)N=C1C has the entry inconclusive: -157%
# In inhibition, Nc1nc(CN2CCN(c3ccccc3F)CC2)nc(Nc2ccccc2)n1 has the entry inactive: 3.75%

# (cont.)

row,SMILES,inhibition
1,CCC(C)[C@H](NC(=O)N1CC(=O)Nc2ccccc21)C(=O)N1CCC[C@H]1C(=O)O (stereo not given in full),inconclusive: -53%
2,Cc1snc(SCc2cccc(Cl)c2)c1C#N,inactive: 0.969%
3,COc1ccc(NC(=O)N2CCC(NC(=O)c3ccco3)CC2)cc1,inconclusive: -106%
4,CC1(C)S[C@@H]2[C@H](NC(=O)[C@H](N)c3ccccc3)C(=O)N2[C@H]1C(=O)O,inconclusive: -24.6%
5,CC[C@H](C)/C=C(C)/C=C/C1=CC2=CC(=O)[C@]3(C)OC(=O)[C@@H](C(C)=O)[C@@H]3C2=CO1,inconclusive: -201%
6,N=c1nc(-c2ccccc2)ccn1O,active: 52.8%
7,COc1ccc(/C(O)=C2/C(=O)C(=O)N(Cc3cccnc3)C2c2ccccn2)cc1 (stereo not given),inconclusive: -146%
8,Cc1c(C(=O)O)oc2ccc(S(=O)(=O)NCCC3=CCCCC3)cc12,inconclusive: -161%
9,COc1ccccc1NC(=O)CCC(=O)Nc1ccccc1OC,inconclusive: -115%
10,O=C(NCCc1ccccc1)C1CCN(S(=O)(=O)c2ccc(Br)s2)CC1,inconclusive: -52.8%
11,CCOC(=O)c1ccccc1NC(=O)c1c(F)c(F)c(F)c(F)c1F,inconclusive: -80.2%
12,COC(=O)c1ccc(CSc2ncnc3c2oc2ccccc23)o1,inconclusive: -50.6%
13,O=C(Nc1ccc(O)cc1)c1ccccc1OCc1ccccc1,inactive: 11.2%
14,O=C(Cn1ncc(Cl)c(Cl)c1=O)N1CCOCC1,inconclusive: -169%
15,O=C(NCCc1c[nH]c2ccccc12)c1ccc(S(=O)(=O)NCc2ccco2)cc1,inconclusive: -231%
16,CC(C)c1ccc(S(=O)(=O)/N=C2\C=C(NS(=O)(=O)c3ccccc3)C(=O)c3ccccc32)cc1,inconclusive: -53.9%
17,CC(=O)N1CCc2[nH]c3ccc(C)cc3c2C1,inactive: 2.04%
18,COc1ccc(N2CC(NS(=O)(=O)c3ccc4ccccc4c3)CC2=O)cc1 (stereo not given),inconclusive: -50.3%
19,O=C(Nc1cc(C(F)(F)F)ccc1Cl)C(Sc1cccc[n+]1[O-])c1ccccc1 (stereo not given),inconclusive: -50.3%
20,CC1=C(/C=C/C(C)=C/C=C/C(C)=C/CO)C(C)(C)CCC1,inconclusive: -77.9%
21,COc1ccccc1C(=O)NC(=O)COC(=O)CCNS(=O)(=O)c1ccccc1,inconclusive: -143%
22,Cc1ccc(C(C)C)c(OCC(O)CNC2CCCC2)c1 (stereo not given),inactive: -8.18%
23,Cc1cc(C)n(-c2nc(N(c3ccccc3)c3ccccc3)nc(-n3nc(C)cc3C)n2)n1,inconclusive: -27.7%
24,COc1cccc(NCc2cc3c(C(C)(C)C)nn(-c4ccccc4)c3[nH]c2=O)c1,inactive: 2.48%
25,CN1CCSc2ccc(C(=O)NCc3cccc(Br)c3)cc21,inactive: 17.6%
26,COCCNC(=O)/C(C#N)=C/c1c(N2CCN(c3ccc(OC)cc3)CC2)nc2c(C)cccn2c1=O,inactive: 24.3%
27,O=C(COC(=O)CCC(=O)c1ccccc1)NCCc1ccccc1,inconclusive: -48.1%
